Drawing on PMC2386556, this text covers binding for 4 molecules.

Protein sequences, listed by entry. Tags and fused reporters are not part of them. Residues count along the entry.
UniProt Q6WB98, residues 19-539: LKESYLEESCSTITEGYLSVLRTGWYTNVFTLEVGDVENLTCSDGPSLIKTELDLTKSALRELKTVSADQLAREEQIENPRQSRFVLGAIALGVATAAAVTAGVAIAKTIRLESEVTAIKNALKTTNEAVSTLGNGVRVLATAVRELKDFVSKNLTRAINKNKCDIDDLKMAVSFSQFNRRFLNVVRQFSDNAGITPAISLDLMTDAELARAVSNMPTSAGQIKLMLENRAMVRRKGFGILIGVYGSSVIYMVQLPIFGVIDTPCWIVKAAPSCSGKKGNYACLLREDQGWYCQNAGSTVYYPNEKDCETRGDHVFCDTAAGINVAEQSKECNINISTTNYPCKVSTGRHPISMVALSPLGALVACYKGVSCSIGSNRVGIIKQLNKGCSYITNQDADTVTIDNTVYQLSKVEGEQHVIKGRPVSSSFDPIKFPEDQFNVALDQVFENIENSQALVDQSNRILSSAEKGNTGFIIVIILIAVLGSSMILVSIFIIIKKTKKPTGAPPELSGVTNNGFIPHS

Results are given in words; binding and its absence hold for the method and conditions named. In cells and extracts the contact can be indirect. Some entries that bind do so weakly or less than the wild type. For some of these results: Sequences can lack the tags named with a protein.

One test deals with T1, Flag-tagged RIG-I (UniProt O95786).
T1 sequence: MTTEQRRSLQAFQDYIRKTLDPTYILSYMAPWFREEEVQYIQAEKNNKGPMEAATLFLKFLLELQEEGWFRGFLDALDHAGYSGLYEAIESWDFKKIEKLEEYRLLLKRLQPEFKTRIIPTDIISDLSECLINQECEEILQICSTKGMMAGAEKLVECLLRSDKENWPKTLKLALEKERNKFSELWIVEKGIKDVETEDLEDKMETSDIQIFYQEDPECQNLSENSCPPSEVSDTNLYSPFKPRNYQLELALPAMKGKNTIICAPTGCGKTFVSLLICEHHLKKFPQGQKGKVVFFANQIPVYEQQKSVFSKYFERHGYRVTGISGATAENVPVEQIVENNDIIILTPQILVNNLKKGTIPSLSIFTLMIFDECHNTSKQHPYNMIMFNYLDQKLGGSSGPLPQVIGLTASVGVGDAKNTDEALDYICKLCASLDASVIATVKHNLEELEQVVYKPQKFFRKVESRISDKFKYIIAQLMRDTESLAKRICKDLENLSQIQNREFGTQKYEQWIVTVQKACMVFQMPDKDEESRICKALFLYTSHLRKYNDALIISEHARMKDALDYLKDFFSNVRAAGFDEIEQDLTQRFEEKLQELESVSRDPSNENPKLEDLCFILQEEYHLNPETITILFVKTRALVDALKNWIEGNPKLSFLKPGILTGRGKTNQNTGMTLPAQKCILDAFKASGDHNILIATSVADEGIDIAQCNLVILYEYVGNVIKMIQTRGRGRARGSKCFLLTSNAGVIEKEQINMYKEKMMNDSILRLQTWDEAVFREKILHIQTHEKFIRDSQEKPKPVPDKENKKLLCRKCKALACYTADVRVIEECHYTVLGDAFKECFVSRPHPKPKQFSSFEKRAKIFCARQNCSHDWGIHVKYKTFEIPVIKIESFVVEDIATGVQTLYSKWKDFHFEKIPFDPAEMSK
Nature of the test: co-IP; 293 cells cotransfected with the Flag-tagged and V5-tagged expression plasmids and harvested after 30 h; lysate precleared with protein A/G-agarose; IP with anti-V5 or anti-Flag antibody (5 µg, 1 h, 4°C; beads overnight at 4°C); Western blot for the other tag.

The target of test [1] is T2, endogenous RIG-I (human (endogenous in A549)) (UniProt O95786).
T2 sequence: T1 sequence
Nature of the test: co-IP; A549 cells mock infected or infected with rhMPV-WT or rhMPV-ΔG, MOI 2, 24 h; lysate immunoprecipitated with anti-RIG-I antibody or isotype control; Western blot with polyclonal anti-hMPV antibody. On the technique in general: Immunoblotting shows a protein as a band on a membrane.

Test [2] concerns the target T3, V5-tagged hMPV glycoprotein G (human metapneumovirus (Canadian isolate hMPV83 / CAN83)) (UniProt Q6WB94).
T3 sequence: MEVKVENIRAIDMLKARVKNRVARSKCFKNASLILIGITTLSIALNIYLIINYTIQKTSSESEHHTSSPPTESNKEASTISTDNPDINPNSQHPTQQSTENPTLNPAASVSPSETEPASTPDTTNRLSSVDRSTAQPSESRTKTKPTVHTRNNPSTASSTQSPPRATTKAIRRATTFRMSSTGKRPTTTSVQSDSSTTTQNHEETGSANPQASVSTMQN
Nature of the test: co-IP; 293 cells cotransfected with the Flag-tagged and V5-tagged expression plasmids and harvested after 30 h; lysate precleared with protein A/G-agarose; IP with anti-V5 or anti-Flag antibody (5 µg, 1 h, 4°C; beads overnight at 4°C); Western blot for the other tag.

With “V5-tagged hMPV F protein (from UniProt Q6WB98 19-539)”, the binding result with Flag-tagged RIG-I is “no binding”.

B1: V5-tagged hMPV glycoprotein G (protein, UniProt Q6WB94 1-219)
chain: T3 sequence
As to B1, the binding entry in the test with Flag-tagged RIG-I is on record as “binds”.

B2: hMPV G protein expressed from rhMPV-WT infection (protein, UniProt Q6WB94 1-219)
chain: T3 sequence
modifications: glycosylated (two major glycosylated forms around 90 and 50 kD)
As for B2, the binding entry in test [1] is listed as “binds”.

B3: Flag-tagged RIG-I (protein, UniProt O95786 1-925)
chain: T1 sequence
In the case of B3, the binding result in test [2] is on record as “binds”.
